Measurements published in article PMC12285911.

B1: NUB1 (NEDD8 ultimate buster 1), wild type, full length [human] / ^FAMFAT10 (GG–FAT10 N-terminally labeled with fluorescein amidite by sortase) [modified: 5-FAM on the N terminus (5-FAM conjugated to the N terminus of … (parent)
chain 1: GPGSMAQKKYLQAKLTQFLREDRIQLWKPPYTDENKKVGLALKDLAKQYSDRLECCENEVEKVIEEIRCKAIERGTGNDNYRTTGIATIEVFLPPRLKKDRKNLLETRLHITGRELRSKIAETFGLQENYIKIVINKKQLQLGKTLEEQGVAHNVKAMVLELKQSEEDARKNFQLEEEEQNEAKLKEKQIQRTKRGLEILAKRAAETVVDPEMTPYLDIANQTGRSIRIPPSERKALMLAMGYHEKGRAFLKRKEYGIALPCLLDADKYFCECCRELLDTVDNYAVLQLDIVWCYFRLEQLECLDDAEKKLNLAQKCFKNCYGENHQRLVHIKGNCGKEKVLFLRLYLLQGIRNYHSGNDVEAYEYLNKARQLFKELYIDPSKVDNLLQLGFTAQEARLGLRACDGNVDHAATHITNRREELAQIRKEEKEKKRRRLENIRFLKGMGYSTHAAQQILLSNPQMWWLNDSNPETDNRQESPSQENIDRLVYMGFDALVAEAALRVFRGNVQLAAQTLAHNGGSLPPELPLSPEDSLSPPATSPSDSAGTSSASTDEDMETEAVNEILEDIPEHEEDYLDSTLEDEEIIIAEYLSYVENRKSATKKN
chain 2: GGMAPNASCLCVHVRSEEWDLMTFDANPYDSVKKIKEHVRSKTKVPVQDQVLLLGSKILKPRRSLSSYGIDKEKTIHLTLKVVKPSDEELPLFLVESGDEAKRHLLQVRRSSSVAQVKAMIETKTGIIPETQIVTCNGKRLEDGKMMADYGIRKGNLLFLACYCIGG

Variants of: B1
Test: fluorescence polarisation
Details: with ^FAMFAT10 (GG–FAT10 N-terminally labeled with fluorescein amidite by sortase) [modified: 5-FAM on the N terminus (5-FAM conjugated to the N terminus of the pept); FAMFAT10 100 nM; NUB1 5 μM; preincubation for 30 min; read off a plot

Variant	response [mP]
chain 1 C321A R328A	167
chain 1 D218P A220P	146
chain 1 D282A	166
chain 1 L566S I569S	155
chain 1 N283A	148
chain 1 R418A L422A	191
chain 1 Y576A	187
